# The whole screen tested about 400,000 compounds, of which about 13,000 (3.2%) were called active. Inconclusive means that the source gave no clear call. Such entries were picked first, then a sample of the others. The call rests on the fitted dose curve; in most records, active means well fitted cell-killing curve with a large enough effect; inconclusive means small, poorly fitted or top-dose-only effect, or effect the other way; inactive means flat fitted curve, though single readings scatter. Potencies of inconclusive entries are doubtful fits and often do not repeat.
# Assay: qHTS assay for MDR1-selective chemotherapeutics: Primary screen using the drug-selected MDR subline cells KB-V1; further: nearly all actives have a fitted effect of over 60% in size
# Conditions: KB-V1 MDR cells viability, CellTiter-Glo, 72 h; activity change, negative = cytotoxicity: at 46.1 µM (top of the series)
# Outline: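 KB-V1 MDR subline cells in DMEM (phenol-red free, 10% FBS) exposed to compounds in qHTS concentration series for 72 h at 37 degrees C. Viability read by CellTiter-Glo luminescence; concentration-effect curves fitted after normalization and correction.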
# On the % scale 0 is the no-effect control and ±100 the full control effect; potency means the concentration at half of the fitted maximal effect.
Structure (SMILES),"activity change, negative = cytotoxicity",Potency
CCCCCCCn1c2c(c(=N)c3ccccc31)CCC2,inconclusive: 1.52%,
NC(=S)N/N=C\c1c2ccccc2cc2ccccc12,,"inconclusive: 2.31 µM [cytotoxic, partial curve, poor fit]"
C/C(=N/NC(=O)c1ccc(O)cc1)c1cccc([N+](=O)[O-])c1,inactive: 17.8%,
COc1ccc(NC(=O)CC2C(=O)N(C)C(=S)N2CCc2ccc(F)cc2)cc1 (stereo not given),,"inconclusive: 25.9 µM [cytotoxic, partial curve, poor fit]"
COc1ccc(N2CCN(C(=S)Nc3ccccc3OC)CC2)cc1,inactive: -7.91%,
O=C(NNC(=O)c1ccc(-n2cncn2)c([N+](=O)[O-])c1)c1cccc(Cl)c1,,"inconclusive: 16.4 µM [rising, partial curve]"
Cc1ccc(OCCN2C(=O)c3ccccc3C2=O)c(C)c1,,"inconclusive: 20.6 µM [cytotoxic, partial curve, poor fit]"
CCOc1ccc(CCNC(=O)C2CCN(C(=O)c3cc4sccc4n3CC)CC2)cc1OCC,inactive: -7.02%,
COc1ccc(C(=O)/C=C\N2CCOCC2)cc1,,"inconclusive: 29.1 µM [cytotoxic, single point]"
Cc1ccc(NC(=O)CN2CCc3ccccc3C2)cc1S(=O)(=O)N(C)C,,"inconclusive: 14.6 µM [cytotoxic, partial curve]"
O=C(CCn1c(=O)sc2ccccc21)NCc1ccc2c(c1)OCO2,,"inconclusive: 23.1 µM [cytotoxic, single point]"
O=C(Nc1ccccc1)c1ccc(-c2ccc([N+](=O)[O-])cc2)o1,inactive: -18.3%,
CCCCn1c(CNC(=O)C23CC4CC(CC(C4)C2)C3)nnc1SCC(=O)Nc1nnc(C)s1,inactive: -13.9%,
Nc1nonc1-n1nnc(C(=O)N/N=C/c2cccc(Cl)c2)c1-c1ccc2c(c1)OCO2,,"inconclusive: 23.1 µM [rising, single point]"
O=C(NC1CCCC1)C(c1cccnc1)N(C(=O)c1csnn1)c1ccc(F)cc1 (stereo not given),,"inconclusive: 0.0206 µM [rising, full curve]"
Cc1ccc(S(=O)(=O)Nc2ccncc2)c(C)c1N(C)S(=O)(=O)c1ccc(F)cc1,,"inconclusive: 32.6 µM [rising, single point]"
Cc1cc(C)c(NC(=O)Nc2ccccc2)c(C)n1,,"inconclusive: 32.6 µM [rising, single point]"
O=C(CN1C(=O)NC2(CCCCC2)C1=O)Oc1ccc2ccc(=O)oc2c1,inactive: 0.264%,
O=C(CNC(=O)c1ccc(-c2ccccc2)cc1)OCc1c(Cl)cccc1Cl,,"inconclusive: 29.1 µM [rising, partial curve, poor fit]"
COc1cccc(-c2nc(-c3ccccc3)nc(N3CCN(C)CC3)c2C#N)c1,,"inconclusive: 29.1 µM [cytotoxic, single point]"
COC1=C(c2ccccc2)C(=O)c2ccccc2C1=O,,"inconclusive: 29.1 µM [cytotoxic, single point]"
CN(C)CCP(=O)(c1ccccc1)c1ccccc1,inactive: 14.4%,
OCC1(CCCc2ccccc2)CCN(C2CCC2)CC1,inactive: -10.1%,
COc1ccc(CCN2C(=O)c3[nH]nc(-c4ccccc4O)c3C2c2cccc(Cl)c2)cc1 (stereo not given),,"inconclusive: 18.4 µM [cytotoxic, single point]"

# Compounds shown so far that contain two or more sulfur atoms, in the order listed:
Structure (SMILES),"activity change, negative = cytotoxicity",Potency
CCCCn1c(CNC(=O)C23CC4CC(CC(C4)C2)C3)nnc1SCC(=O)Nc1nnc(C)s1,inactive: -13.9%,
Cc1ccc(S(=O)(=O)Nc2ccncc2)c(C)c1N(C)S(=O)(=O)c1ccc(F)cc1,,"inconclusive: 32.6 µM [rising, single point]"

# Additional results follow:

Structure (SMILES),"activity change, negative = cytotoxicity",Potency
CC(C)(C)n1nnnc1CN1CCN(C(c2ccccc2)c2ccccc2)CC1,,"inconclusive: 29.1 µM [cytotoxic, single point]"
COc1ccc(CNC(=O)C2CCN(C(=O)[C@@H]3Cc4ccccc4CN3)CC2)cc1,inactive: 15.6%,
OC[C@@H](O)[C@@H](O)[C@H](O)[C@@H](O)CO,,"inconclusive: 10.3 µM [rising, partial curve]"
O=C(Nc1ncc2c(n1)-c1ccccc1CC2)c1ccc(Cl)cc1,,active: 9.2 µM
O=C(COc1cc(F)ccc1[N+](=O)[O-])Nc1cccc(S(=O)(=O)NC2=NCCC2)c1,,"inconclusive: 13 µM [rising, partial curve, poor fit]"
COc1cc(OC)cc(C(=O)Nc2cccc(NC(=O)c3cc(OC)cc(OC)c3)n2)c1,,"inconclusive: 29.1 µM [cytotoxic, single point]"
COc1ccc(C2CC(c3ccc(OC)c(OC)c3)=NN2S(C)(=O)=O)cc1 (stereo not given),,"inconclusive: 4.61 µM [cytotoxic, full curve]"
FC(F)(F)COc1cc(-c2nnc(SCc3ccccc3)n2Cc2ccco2)cc(OCC(F)(F)F)n1,inactive: -3.88%,
O=S(=O)(c1cccs1)N1CCN(CCOc2ccc(Cl)cc2)CC1,,"inconclusive: 20.6 µM [cytotoxic, partial curve, poor fit]"
COc1cc(N)ccc1Nc1c2ccccc2nc2ccccc12,inactive: -7.91%,
COc1ccc(CN(C)CC(=O)Nc2cccc(S(N)(=O)=O)c2)c(OC)c1OC,inactive: -1.53%,
COc1cccc(-c2cnc3c(NC(C)=O)cc(-c4ccc(S(C)(=O)=O)cc4)cn23)c1,,"inconclusive: 18.4 µM [cytotoxic, single point]"
COc1cccc(N2CCN(C(=O)c3cccn3-c3nnc(N4CCCC4)s3)CC2)c1,inactive: 0.962%,
COc1ccc(CCNC(=O)COc2cc(O)c3c(c2)OC(C)(C)CC3=O)cc1OC,inactive: 4.63%,
CCOC(=O)N1CCC(N(CCOC)C(=O)Nc2ccc(C)c(C)c2)CC1,,active: 4.11 µM
NC(=O)C1CCN(C2CC(=O)N(Cc3ccc(N4CCCC4=O)cc3)C2=O)CC1 (stereo not given),inactive: -8.53%,
CSCC[C@H](NC(=O)COc1ccc(Cl)cc1Cl)c1nc2ccccc2[nH]1,,"inconclusive: 7.31 µM [cytotoxic, partial curve]"
Cc1cccc(C(=O)NNC(=O)c2csc(N3CCOCC3)n2)c1C,,"inconclusive: 29.1 µM [cytotoxic, partial curve, poor fit]"
Cc1ccc(-c2nc3ccccc3n2C(C(=O)NC(C)(C)C)C2CC2)cc1 (stereo not given),,"inconclusive: 8.2 µM [cytotoxic, partial curve]"
CC(C)(C)[C@H]1COC(=O)CCCC/C=C\C[C@H](CC(=O)NCCO)C(=O)N1,,"inconclusive: 29.1 µM [rising, single point]"
Cc1ccc(CSc2oc(-c3cccs3)nc2S(=O)(=O)c2ccccc2)cc1,,"inconclusive: 29.1 µM [rising, single point]"
COc1cc2cccc(OC)c(=O)c2c(OC)c1OC,,"inconclusive: 13 µM [cytotoxic, partial curve, poor fit]"
COc1ccccc1NS(=O)(=O)c1cccc(C(=O)N/N=C/c2ccc([N+](=O)[O-])o2)c1,,"inconclusive: 25.9 µM [cytotoxic, single point]"
O=c1c2c(nc3c(-c4ccccc4)c[nH]n13)CCC2,,"inconclusive: 16.4 µM [cytotoxic, single point]"

Structure (SMILES),"activity change, negative = cytotoxicity",Potency
CCC1CCCCN1C(=O)CSc1nnc(-c2ccc3c(c2)OCCO3)o1 (stereo not given),inactive: 1.33%,
COc1ccc(C2C(C#N)=C(N)N(Nc3ccccc3)C3=C2C(=O)CC(C)(C)C3)cc1C (stereo not given),inactive: 4.71%,
CCOc1ccccc1N(CC(=O)Nc1ccccc1C(=O)N1CCCC1)S(C)(=O)=O,inconclusive: 3.86%,
O=C(O)Cc1nn(Cc2ccc(Cl)cc2)c(=O)c2ccccc12,inactive: 0.491%,
COc1ccccc1N1CCN(C(=O)Nc2ccc([N+](=O)[O-])cc2)CC1,inactive: -7.93%,
CC(C)OC(=O)c1c(NC(=O)c2ccco2)sc2c1CCCCC2,inactive: 1.07%,
CCOC1=C2CN(S(=O)(=O)c3ccc(C)cc3)[C@H](c3ccccc3)C[C@@H]2N(S(=O)(=O)c2ccc(Br)cc2)[C@H](c2ccccc2)C1,inactive: 0%,
Cc1c(NC(=O)c2cc(-c3cccc(O)c3)on2)c(=O)n(-c2ccccc2)n1C,,"inconclusive: 29.1 µM [rising, single point]"
CCC(C(=O)NCc1ccccc1)n1c(Cc2cc(F)cc(F)c2)nc2ccccc21 (stereo not given),,"inconclusive: 4.61 µM [cytotoxic, full curve]"
CCOC(=O)c1c(C)nc(C)c(C(=O)OCC)c1-c1ccc(O)c(OC)c1,inactive: 0.964%,
COc1cccc(/C=N/N2CCN(c3ccccc3OC)CC2)c1,,active: 11.6 µM
Cc1ccc(C)c(NS(=O)(=O)c2cc(C(=O)NCc3ccccn3)ccc2C)c1,,"inconclusive: 8.2 µM [cytotoxic, partial curve]"
Cc1ccc2ncc(C(=O)N3CCN(c4ccccc4F)CC3)c(=O)n2c1,,"inconclusive: 1.03 µM [rising, single point]"
COc1ccc(N2CCN(c3ncnc4scc(-c5ccc(F)cc5)c34)CC2)cc1,,"inconclusive: 14.6 µM [cytotoxic, partial curve]"
CCOc1ccc(S(=O)(=O)n2cc(-c3ccc(F)cc3)c(N)n2)cc1,,active: 16.4 µM
O=S(=O)(NC1CCN(Cc2ccccc2)CC1)c1ccc(Cl)cc1,inactive: -14.5%,
CSc1nccc(NC(=O)c2ccc(C(C)(C)C)cc2)n1,,"inconclusive: 14.6 µM [cytotoxic, partial curve, poor fit]"
COC(=O)C1=NNCC12CC(=O)N(c1ccc(Br)cc1)C2=O (stereo not given),,"inconclusive: 20.6 µM [rising, single point]"
Cn1c(=O)n(CCc2ccccc2)c(=O)c2c1nc1n2CCN1Cc1ccco1,,"inconclusive: 16.4 µM [cytotoxic, partial curve]"
COc1cccc(C(c2c(NC(=O)c3ccco3)sc(C)c2C)N2CCOCC2)c1 (stereo not given),,"inconclusive: 14.6 µM [cytotoxic, partial curve, poor fit]"
CN(CC(=O)Nc1ccc(F)c(F)c1F)C(=O)CC1CCCCC1,,active: 14.6 µM
COc1ccc(CCNC(=O)c2cnn(-c3ccc(F)cc3)c2C2CCN(C(=O)OC(C)(C)C)CC2)c(OC)c1,,"inconclusive: 18.4 µM [cytotoxic, single point]"

# — PubChem BioAssay AID1347076 (National Center for Advancing Translational Sciences (NCATS), 2019)
